# Paper doi:10.1101/2023.09.07.556733
# B1: EB1 (protein, UniProt Q6P848 1-269)
# chain: MAVNVYSTSVTSDNLSRHDMLAWINESLQLNLTKIEQLCSGSVYCQFMDMLFPGSVVLKKVKFQAKLEHEYIQNFKVLQAGFKKMGVDKIIPVDKLVKGKFQDNFEFVQWFKKFFDANYDGKDYDPVAARQGQESAPVPVLAAPVLNKPKKPLGSGNTAPQRTVPVQRTAVSNKPPAQGISKKPATVGNGDDESAELIQQINVLKITVEDLEKERDFYFGKLRNIELICQENEGESDPVLQRIIEILYATDEGFVIPDEGAPPEDQEEY
# Biological target: Gαi2 (endogenous, cranial neural crest cells) (Xenopus tropicalis or Xenopus laevis (endogenous in cranial neural crest explants))
# Assay: proximity ligation
binder,measurement,value
B1,binding,binds

# No constants are given. Whether binding was seen depends on the method and setting. Binding seen in cells or lysates may run through a third protein. A result given as binding can be weak or reduced; the word gives no strength.
